Measurements reported in the supplement of paper PMC7666118.
The list shows a part of the results.

The chains behind the UniProt entries cited, without tags or fusion partners. Where a name states a change or a piece, a line headed by the entry shows the natural chain unless it says otherwise.
UniProt Q9Y5L4: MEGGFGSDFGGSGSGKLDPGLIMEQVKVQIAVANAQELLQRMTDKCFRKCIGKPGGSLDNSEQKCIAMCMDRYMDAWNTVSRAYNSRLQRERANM
UniProt Q9UKE5: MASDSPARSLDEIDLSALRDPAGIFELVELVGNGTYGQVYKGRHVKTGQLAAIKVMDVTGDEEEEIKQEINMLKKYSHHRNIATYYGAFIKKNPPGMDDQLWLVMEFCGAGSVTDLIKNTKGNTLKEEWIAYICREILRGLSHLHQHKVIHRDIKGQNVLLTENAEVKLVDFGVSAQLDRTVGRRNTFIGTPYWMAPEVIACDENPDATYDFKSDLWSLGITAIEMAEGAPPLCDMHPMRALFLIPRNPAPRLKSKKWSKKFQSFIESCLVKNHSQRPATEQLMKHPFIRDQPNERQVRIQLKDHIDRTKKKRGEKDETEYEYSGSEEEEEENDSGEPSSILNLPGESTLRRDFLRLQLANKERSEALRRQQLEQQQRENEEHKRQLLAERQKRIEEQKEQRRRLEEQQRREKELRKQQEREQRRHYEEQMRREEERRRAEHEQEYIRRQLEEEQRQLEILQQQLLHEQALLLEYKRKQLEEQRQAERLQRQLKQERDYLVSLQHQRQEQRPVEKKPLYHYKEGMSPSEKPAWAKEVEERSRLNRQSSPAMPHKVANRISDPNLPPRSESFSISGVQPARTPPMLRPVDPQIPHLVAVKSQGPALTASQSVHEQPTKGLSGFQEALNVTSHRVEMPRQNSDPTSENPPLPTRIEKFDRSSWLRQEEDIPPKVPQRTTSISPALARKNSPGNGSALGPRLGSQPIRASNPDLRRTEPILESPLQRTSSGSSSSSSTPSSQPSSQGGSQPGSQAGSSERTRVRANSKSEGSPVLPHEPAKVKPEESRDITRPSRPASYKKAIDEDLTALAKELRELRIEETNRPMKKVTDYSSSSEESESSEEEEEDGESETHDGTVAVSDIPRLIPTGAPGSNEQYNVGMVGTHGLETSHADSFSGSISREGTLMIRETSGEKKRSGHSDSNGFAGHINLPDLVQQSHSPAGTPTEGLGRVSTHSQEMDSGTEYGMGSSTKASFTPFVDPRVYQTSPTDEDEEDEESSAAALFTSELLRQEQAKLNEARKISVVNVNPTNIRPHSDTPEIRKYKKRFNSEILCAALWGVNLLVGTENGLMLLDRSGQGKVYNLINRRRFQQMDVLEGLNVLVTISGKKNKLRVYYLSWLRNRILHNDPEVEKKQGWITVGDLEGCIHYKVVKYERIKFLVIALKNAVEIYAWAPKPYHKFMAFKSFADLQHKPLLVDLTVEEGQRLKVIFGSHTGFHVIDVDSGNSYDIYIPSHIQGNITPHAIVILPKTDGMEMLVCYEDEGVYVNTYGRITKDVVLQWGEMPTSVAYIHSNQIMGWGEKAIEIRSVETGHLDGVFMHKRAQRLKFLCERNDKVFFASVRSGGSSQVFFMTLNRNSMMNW
UniProt O43617, whole entry: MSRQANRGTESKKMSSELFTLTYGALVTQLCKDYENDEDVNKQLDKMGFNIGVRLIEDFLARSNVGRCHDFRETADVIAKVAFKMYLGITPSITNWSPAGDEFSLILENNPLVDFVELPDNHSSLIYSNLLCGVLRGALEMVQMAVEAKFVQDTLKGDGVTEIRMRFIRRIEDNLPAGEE
UniProt Q96HV5: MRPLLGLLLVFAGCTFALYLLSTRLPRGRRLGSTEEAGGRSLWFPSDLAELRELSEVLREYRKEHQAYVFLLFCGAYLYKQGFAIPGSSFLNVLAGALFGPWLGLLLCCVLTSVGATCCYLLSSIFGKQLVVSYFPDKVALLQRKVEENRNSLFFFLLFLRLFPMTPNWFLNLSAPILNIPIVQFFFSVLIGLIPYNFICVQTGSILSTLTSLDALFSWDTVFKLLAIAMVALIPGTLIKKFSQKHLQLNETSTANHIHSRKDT
UniProt Q99598: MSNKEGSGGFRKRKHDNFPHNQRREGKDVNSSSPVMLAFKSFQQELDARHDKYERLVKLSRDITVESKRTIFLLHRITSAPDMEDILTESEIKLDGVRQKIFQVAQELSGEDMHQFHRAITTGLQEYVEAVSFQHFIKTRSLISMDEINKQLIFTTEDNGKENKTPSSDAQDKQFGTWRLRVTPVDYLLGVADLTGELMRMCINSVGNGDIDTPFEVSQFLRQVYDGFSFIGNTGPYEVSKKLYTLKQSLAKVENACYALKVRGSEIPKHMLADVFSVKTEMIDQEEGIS
UniProt Q8NFZ5: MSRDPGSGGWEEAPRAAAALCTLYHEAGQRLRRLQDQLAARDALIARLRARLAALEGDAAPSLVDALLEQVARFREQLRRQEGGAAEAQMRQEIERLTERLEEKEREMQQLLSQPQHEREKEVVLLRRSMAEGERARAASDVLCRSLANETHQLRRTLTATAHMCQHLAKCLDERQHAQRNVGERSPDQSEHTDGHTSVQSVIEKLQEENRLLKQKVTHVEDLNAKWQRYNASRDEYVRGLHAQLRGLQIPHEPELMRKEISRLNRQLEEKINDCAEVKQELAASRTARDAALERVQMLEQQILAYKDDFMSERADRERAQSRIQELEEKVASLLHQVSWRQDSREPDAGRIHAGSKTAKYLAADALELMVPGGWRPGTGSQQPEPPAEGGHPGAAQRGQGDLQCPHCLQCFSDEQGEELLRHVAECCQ
UniProt Q92544: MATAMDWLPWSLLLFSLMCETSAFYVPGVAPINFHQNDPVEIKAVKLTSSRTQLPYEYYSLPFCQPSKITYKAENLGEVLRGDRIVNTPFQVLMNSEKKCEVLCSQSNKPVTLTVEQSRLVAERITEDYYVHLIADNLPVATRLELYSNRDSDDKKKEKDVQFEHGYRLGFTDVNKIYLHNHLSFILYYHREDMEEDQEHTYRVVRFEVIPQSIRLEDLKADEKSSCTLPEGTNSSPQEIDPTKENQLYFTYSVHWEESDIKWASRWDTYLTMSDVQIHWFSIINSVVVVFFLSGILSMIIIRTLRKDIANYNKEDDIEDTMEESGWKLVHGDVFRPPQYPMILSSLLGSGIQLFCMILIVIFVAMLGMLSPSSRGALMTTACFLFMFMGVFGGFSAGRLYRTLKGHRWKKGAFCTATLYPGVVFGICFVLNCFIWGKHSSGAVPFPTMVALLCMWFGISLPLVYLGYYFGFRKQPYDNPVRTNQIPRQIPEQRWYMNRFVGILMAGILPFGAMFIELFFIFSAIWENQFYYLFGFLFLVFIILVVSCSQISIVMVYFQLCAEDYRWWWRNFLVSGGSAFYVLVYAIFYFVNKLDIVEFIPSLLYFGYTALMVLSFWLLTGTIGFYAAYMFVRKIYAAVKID
UniProt Q96FV9: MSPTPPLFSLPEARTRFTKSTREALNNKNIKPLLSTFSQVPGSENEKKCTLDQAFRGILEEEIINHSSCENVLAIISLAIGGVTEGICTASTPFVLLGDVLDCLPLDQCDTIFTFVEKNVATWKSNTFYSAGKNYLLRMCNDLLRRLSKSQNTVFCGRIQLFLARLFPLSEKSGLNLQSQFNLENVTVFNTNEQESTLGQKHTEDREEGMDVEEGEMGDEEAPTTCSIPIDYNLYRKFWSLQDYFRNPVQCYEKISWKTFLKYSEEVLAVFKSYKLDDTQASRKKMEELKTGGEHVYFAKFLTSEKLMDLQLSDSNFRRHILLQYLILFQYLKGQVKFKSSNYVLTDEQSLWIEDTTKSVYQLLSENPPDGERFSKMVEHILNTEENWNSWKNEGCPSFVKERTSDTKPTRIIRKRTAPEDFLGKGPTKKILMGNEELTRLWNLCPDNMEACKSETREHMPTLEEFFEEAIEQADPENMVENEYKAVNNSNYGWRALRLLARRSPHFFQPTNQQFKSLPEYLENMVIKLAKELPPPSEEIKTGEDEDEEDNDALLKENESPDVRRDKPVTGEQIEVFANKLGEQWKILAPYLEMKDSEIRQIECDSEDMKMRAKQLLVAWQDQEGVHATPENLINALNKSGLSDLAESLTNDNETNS
UniProt Q9NUM4, whole entry: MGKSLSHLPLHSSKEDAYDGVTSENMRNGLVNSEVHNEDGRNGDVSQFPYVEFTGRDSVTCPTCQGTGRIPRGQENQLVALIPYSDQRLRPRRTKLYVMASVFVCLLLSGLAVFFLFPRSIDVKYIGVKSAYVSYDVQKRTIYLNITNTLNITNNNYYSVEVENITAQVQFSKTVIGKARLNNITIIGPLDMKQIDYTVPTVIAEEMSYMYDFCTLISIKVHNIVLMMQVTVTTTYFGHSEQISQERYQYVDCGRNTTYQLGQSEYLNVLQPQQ
UniProt Q9Y3Q8: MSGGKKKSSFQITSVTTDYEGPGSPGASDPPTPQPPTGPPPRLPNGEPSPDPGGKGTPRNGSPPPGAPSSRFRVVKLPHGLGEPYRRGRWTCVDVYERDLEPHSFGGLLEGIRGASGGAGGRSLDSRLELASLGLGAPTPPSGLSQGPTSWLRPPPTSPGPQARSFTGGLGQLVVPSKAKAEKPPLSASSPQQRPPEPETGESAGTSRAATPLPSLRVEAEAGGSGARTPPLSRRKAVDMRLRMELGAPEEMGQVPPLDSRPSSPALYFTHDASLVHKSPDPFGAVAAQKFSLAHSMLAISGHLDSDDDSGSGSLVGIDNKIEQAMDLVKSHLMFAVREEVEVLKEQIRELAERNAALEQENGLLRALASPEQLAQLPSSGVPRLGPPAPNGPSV
UniProt Q9C0B7: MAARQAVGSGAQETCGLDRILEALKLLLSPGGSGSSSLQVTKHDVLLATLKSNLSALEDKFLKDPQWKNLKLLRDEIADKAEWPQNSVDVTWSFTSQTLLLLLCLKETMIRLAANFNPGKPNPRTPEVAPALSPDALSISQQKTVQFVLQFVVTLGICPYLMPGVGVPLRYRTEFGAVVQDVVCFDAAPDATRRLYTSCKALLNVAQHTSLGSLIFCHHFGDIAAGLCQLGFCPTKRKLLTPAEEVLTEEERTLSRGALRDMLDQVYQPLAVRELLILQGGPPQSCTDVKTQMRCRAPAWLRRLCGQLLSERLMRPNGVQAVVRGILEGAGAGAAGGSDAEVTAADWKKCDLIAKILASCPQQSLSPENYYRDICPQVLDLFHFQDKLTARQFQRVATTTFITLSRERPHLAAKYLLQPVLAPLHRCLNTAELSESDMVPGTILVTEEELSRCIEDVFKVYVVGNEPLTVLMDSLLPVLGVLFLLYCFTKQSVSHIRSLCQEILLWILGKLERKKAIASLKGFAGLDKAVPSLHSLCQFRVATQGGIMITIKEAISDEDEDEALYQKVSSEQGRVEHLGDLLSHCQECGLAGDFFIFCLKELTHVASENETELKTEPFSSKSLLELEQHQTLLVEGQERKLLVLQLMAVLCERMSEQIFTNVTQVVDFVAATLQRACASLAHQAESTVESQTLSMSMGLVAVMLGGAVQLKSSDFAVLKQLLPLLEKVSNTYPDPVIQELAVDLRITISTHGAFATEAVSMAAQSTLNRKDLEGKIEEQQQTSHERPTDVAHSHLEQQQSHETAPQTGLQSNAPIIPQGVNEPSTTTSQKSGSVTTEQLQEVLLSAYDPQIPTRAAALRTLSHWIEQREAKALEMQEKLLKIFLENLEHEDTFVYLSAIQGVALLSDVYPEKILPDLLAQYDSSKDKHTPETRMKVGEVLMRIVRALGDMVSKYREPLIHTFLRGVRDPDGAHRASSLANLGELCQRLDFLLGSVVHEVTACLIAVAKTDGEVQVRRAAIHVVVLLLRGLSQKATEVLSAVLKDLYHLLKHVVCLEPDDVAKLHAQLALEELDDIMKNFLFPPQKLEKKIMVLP
UniProt Q96MH6: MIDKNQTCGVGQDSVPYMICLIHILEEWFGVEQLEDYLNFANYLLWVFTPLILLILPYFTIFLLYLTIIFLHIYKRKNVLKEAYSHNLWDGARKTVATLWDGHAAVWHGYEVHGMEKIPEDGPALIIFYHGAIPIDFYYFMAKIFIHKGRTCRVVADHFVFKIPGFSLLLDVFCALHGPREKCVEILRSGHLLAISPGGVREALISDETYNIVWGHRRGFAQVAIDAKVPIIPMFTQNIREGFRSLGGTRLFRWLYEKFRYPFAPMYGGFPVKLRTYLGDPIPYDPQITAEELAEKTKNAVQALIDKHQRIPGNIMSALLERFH
UniProt Q9NUH8: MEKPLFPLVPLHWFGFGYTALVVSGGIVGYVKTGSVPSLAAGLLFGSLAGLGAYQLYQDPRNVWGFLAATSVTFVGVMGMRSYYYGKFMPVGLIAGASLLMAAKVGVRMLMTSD
UniProt Q16762: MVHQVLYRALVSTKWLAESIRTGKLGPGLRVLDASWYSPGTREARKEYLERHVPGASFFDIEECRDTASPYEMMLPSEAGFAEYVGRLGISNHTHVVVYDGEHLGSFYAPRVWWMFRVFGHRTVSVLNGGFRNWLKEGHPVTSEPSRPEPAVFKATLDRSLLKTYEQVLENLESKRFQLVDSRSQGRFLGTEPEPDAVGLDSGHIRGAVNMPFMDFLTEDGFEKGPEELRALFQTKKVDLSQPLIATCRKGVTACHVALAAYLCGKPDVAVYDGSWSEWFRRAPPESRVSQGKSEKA

What follows are targets tested with COc1ccc(Cn2ccc3cc(C)c(C(=O)NO)cc32)cc1 (assay: dose-dependent thermal stabilisation call (2D-TPP, DLPTP, 10% FDR) (binary (1 = stabilised)); higher = stabilised by the compound). Conditions: system: HL-60 intact cells; concentration range 0.04-10 µM.
Experimental: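 2D thermal proteome profiling in intact HL-60 cells treated with BRD-3811 (0, 0.04, 0.29, 2, 10 uM) for 90 min at 37 C, then heated 3 min at one of 12 temperatures (42-63.9 C). Soluble protein was quantified by TMT10 MS. The value is the DLPTP call of the paper: dose-dependent thermal stabilisation over all temperatures at 10% FDR (F-test of a dose-response against a flat model); one experiment, one call per tested protein.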

Target	dose-dependent thermal stabilisation call
TMPO	inactive: 0
TIMM13 (UniProt Q9Y5L4)	active: 1
TNIK (UniProt Q9UKE5)	inactive: 0
TSC1 (UniProt Q92574)	inactive: 0
TMEM109 (UniProt Q9BVC6)	inactive: 0
TMEM135 (UniProt Q86UB9)	inactive: 0
TIAL1 (UniProt Q01085)	inactive: 0
THOC4 (UniProt Q86V81)	inactive: 0
TRAPPC3 (UniProt O43617)	inactive: 0
TMEM41A (UniProt Q96HV5)	inactive: 0
TSPAN3 (UniProt O60637)	inactive: 0
TMEM77 (UniProt Q6UX65)	inactive: 0
TMOD2 (UniProt Q9NZR1)	inactive: 0
TSNAX (UniProt Q99598)	inactive: 0
TRMU (UniProt O75648)	inactive: 0
TNIP2 (UniProt Q8NFZ5)	inactive: 0
TP53RK (UniProt Q96S44)	inactive: 0
TOX4 (UniProt O94842)	inactive: 0
TMEM179B (UniProt Q7Z7N9)	inactive: 0
TMBIM6 (UniProt P55061)	inactive: 0

Part of the list above, bar-delimited.
Target | dose-dependent thermal stabilisation call
TIAL1 (UniProt Q01085) | inactive: 0
TP53RK (UniProt Q96S44) | inactive: 0

More records

Target	dose-dependent thermal stabilisation call
TK1 (UniProt P04183)	inactive: 0
TM9SF4 (UniProt Q92544)	inactive: 0
TRIM26 (UniProt Q12899)	inactive: 0
THOC1 (UniProt Q96FV9)	inactive: 0
TMEM48 (UniProt Q9BTX1)	inactive: 0
TRAF3IP3 (UniProt Q9Y228)	inactive: 0
TRMT1 (UniProt Q9NXH9)	inactive: 0
TMEM106B (UniProt Q9NUM4)	inactive: 0
TSC22D4 (UniProt Q9Y3Q8)	inactive: 0
TMEM206 (UniProt Q9H813)	inactive: 0
TPX2 (UniProt Q9ULW0)	active: 1
TMCO7 (UniProt Q9C0B7)	inactive: 0
TMTC3 (UniProt Q6ZXV5)	inactive: 0
TOP1 (UniProt P11387)	inactive: 0
TMEM68 (UniProt Q96MH6)	inactive: 0
TMEM59 (UniProt Q9BXS4)	inactive: 0
TMEM14B (UniProt Q9NUH8)	inactive: 0
TST (UniProt Q16762)	inactive: 0
TMEM214 (UniProt Q6NUQ4)	inactive: 0
TMEM20 (UniProt Q2M3R5)	inactive: 0
